The text below walks through data of PubChem BioAssay AID1487 (National Center for Advancing Translational Sciences (NCATS), 2009).

This test in a line: qHTS Assay for Modulators of Lamin A Splicing. To be noted: HeLa LMNA splicing GFP/RFP minigene ratio, 48 h. In a few lines: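 Read-out is the ratio of GFP to DsRed2 object intensity, acquired by 488 nm laser-scanning cytometry on HeLa lamin A-EGFP minigene reporter cells. Compound incubation 48 hrs at 37 °C in Opti-MEM with 2% FBS; DMSO 0.5% final.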
The mark [1] stands for this setting: measured here: GFP splicing reporter channel.
The mark [2] stands for this setting: measured here: RFP viability control channel.

Some of the results follow. The main result of the screen is listed elsewhere. These columns were measured beside it and carry no call. The list favours compounds with an active or inconclusive main result. Potencies come from curve fits of mixed quality, noted in brackets.

With `O=C1c2ccccc2C(Nc2ccc3c(c2)OCO3)N1Cc1ccc2c(c1)OCO2` (stereo not drawn), the AC50 (usually the concentration giving half of the maximal activity seen) is, setting by setting: under setting [1], 12.6 µM [rising, single point]; under setting [2], 22.4 µM [rising, single point]. Turning to `COc1ccccc1-c1cc(C(=O)Nc2cc(C)nn2-c2ccccc2)no1`, the AC50 under setting [2] is 3.55 µM [rising, single point]. As for `Cn1nc(-c2ccc(Cl)cc2)c2cc(C(=O)NCc3ccco3)sc21`, the half-maximal activity concentration (AC50) under setting [2] is 22.4 µM [rising, single point].

In the case of `O=C(Nc1cccc(C(F)(F)F)c1)c1cc(-c2ccc3c(c2)OCCO3)on1`, the AC50 is 35.5 µM [falling, partial curve] under setting [1] and 35.5 µM [falling, partial curve, poor fit] under setting [2].

As for `CCc1ccccc1NC(=O)c1ccc2nc(C(C)C)oc2c1`, under setting [2], the concentration at half-maximal activity (AC50) was 1.78 µM [falling, partial curve, poor fit]. For `COc1cc(/C=C/c2cc(C(=O)O)c3ccccc3n2)cc(OC)c1O`, the AC50 under setting [1] is 3.16 µM [rising, full curve]. As for `Cn1c(SCC(=O)NCC2CCCO2)nnc1-c1ccc(S(=O)(=O)N2CCCC2)cc1` (stereo not drawn), the AC50 under setting [2] is 3.98 µM [falling, single point]. For the compound `COc1ccc(Nc2oc(-c3ccccc3Cl)nc2C#N)cc1`, the AC50 under setting [2] is 15.8 µM [rising, partial curve]. In the case of `CCn1c(Sc2nc(C)nc3scc(-c4cccs4)c23)n[nH]c1=O`, the AC50 under setting [2] is 17.8 µM [rising, partial curve].

In the case of `C/C(=N\Nc1ncc(Cl)cc1Cl)c1ccc(S(=O)(=O)NCc2ccco2)cc1`, the AC50 by setting is: under setting [1], 35.5 µM [rising, single point]; under setting [2], 35.5 µM [rising, single point]. On to `CCNC(=S)N=Nc1c(O)[nH]c2ccc(C(C)C)cc12`, for which the AC50 under setting [2] was 31.6 µM [rising, single point]. Same read-out and setting: for `CCc1nnc(NC(=O)CCC(=O)N2CCN(C3CCCCC3)CC2)s1` the value was 2.82 µM [rising, full curve, poor fit]. Regarding `CCOC(=O)c1nn(-c2ccccc2)c(=O)cc1SC(C)C`, under setting [1], the AC50 is 35.5 µM [rising, single point]. On to `Cc1ccsc1-c1nc(C(N)=O)c2[nH]c(=O)n(-c3ccc(Cl)cc3)c2n1`, for which, under setting [2], the AC50 is 0.112 µM [rising, full curve, poor fit]. On the same count and under the same terms, for `COC(=O)c1cn(CCOc2ccc(C)cc2)c2ccccc12` the value was 12.6 µM [rising, single point]. In the case of `CC(=O)Nc1ccc(Oc2sc(C(=O)c3ccccc3)c(N)c2C#N)cc1`, the AC50 reads like this: under setting [1], 15.8 µM [falling, partial curve]; under setting [2], 35.5 µM [falling, single point]. For the compound `CC(Sc1nnc2c(n1)C1CCC2(C)C1(C)C)C(=O)Nc1ccccc1` (stereo not drawn), under setting [2], the AC50 is 22.4 µM [rising, single point].

Consider `CCCOC(=O)c1ccc(NC(=O)C2C3CCC(C3)C2C(=O)O)cc1` (stereo not drawn), for which the AC50 under setting [1] was 15.8 µM [rising, single point].

With `c1cc2[nH]snc2c2nc(C3CC3)nc12`, the AC50 under setting [1] was 11.2 µM [rising, partial curve] and the AC50 under setting [2] was 11.2 µM [rising, partial curve].

Consider `O=S(=O)(C/C(=C/CO)S(=O)(=O)c1ccccc1)c1ccccc1`, for which the AC50 under setting [2] was 10 µM [rising, partial curve]. Turning to `O=C(Nc1cccc2ccccc12)c1nn(C23CC4CC(CC(C4)C2)C3)cc1[N+](=O)[O-]`, the AC50 under setting [2] is 31.6 µM [rising, single point]. `O=C(Nc1cccc(Cl)c1)Nc1ccc(Br)cc1F`: the AC50 reads like this: under setting [1], 12.6 µM [rising, partial curve]; under setting [2], 25.1 µM [rising, partial curve]. In the case of `CCCCNS(=O)(=O)c1ccc2nc(SCC(=O)Nc3cccc(F)c3)[nH]c2c1`, the AC50 reads like this: under setting [1], 6.31 µM [rising, full curve]; under setting [2], 11.2 µM [rising, partial curve]. For `COc1cccc(-c2ccc3ncnc(NCCNC(C)=O)c3c2)c1`, the AC50 was 12.6 µM [falling, partial curve] under setting [1] and 11.2 µM [falling, partial curve, poor fit] under setting [2]. For the compound `O=C(COC(=O)c1cccnc1Cl)Nc1ccc2c(c1)OCCO2`, the AC50 under setting [2] was 0.112 µM [rising, full curve, poor fit]. As to `CCCCN(c1ccccc1)S(=O)(=O)N(C)C`, under setting [1], the AC50 was 0.708 µM [falling, full curve, poor fit]. `COc1ccc(Cc2nnc(SCC(=O)c3ccc(OC)cc3)o2)cc1`: the AC50 under setting [2] was 25.1 µM [rising, single point]. Consider `CCOC(=O)c1ccc(NC(=S)NCCC2=CCCCC2)cc1`, for which, under setting [2], the AC50 is 1.41 µM [rising, partial curve, poor fit].

Turning to `CCOc1cc(N2CCOCC2)c(OCC)cc1NC(=O)CC12CC3CC(CC(C3)C1)C2`, under setting [1], the concentration at half-maximal activity (AC50) was 0.01 µM [rising, full curve, poor fit].

Regarding `Cc1ccc(NNC2CC(=O)N(c3cccc(Cl)c3)C2=O)cc1` (stereo not drawn), under setting [2], the AC50 was 35.5 µM [rising, single point]. On the same count and under the same terms, in the case of `CCOc1cc(C)c(-c2onc(C(F)(F)F)c2-c2csc(C)n2)c(O)c1` it was 25.1 µM [falling, single point].

With `S=C(NCc1cccs1)Nc1ccccc1`, the AC50 under setting [1] was 10 µM [rising, single point]. For `CCC12CN3CC(CC)(CN(C1)C3c1c(O)ccc3ccccc13)C2=O` (stereo not drawn), the AC50 under setting [1] is 35.5 µM [rising, single point] and the AC50 under setting [2] was 35.5 µM [rising, single point]. For the compound `CCN(CC)CCCNC(=O)c1cc(Sc2nnc(C)s2)nc2ccccc12`, the AC50 under setting [2] is 12.6 µM [rising, single point]. In the case of `CCc1ccccc1NC(=S)N(CCCN1CCOCC1)Cc1cccs1`, under setting [2], the concentration at half-maximal activity (AC50) is 11.2 µM [rising, single point]. Take `O=C(c1cccs1)N(Cc1cccnc1)c1nc2c(Cl)cccc2s1`: the AC50 under setting [2] was 35.5 µM [rising, single point]. Regarding `NC(=O)c1ccccc1NC(=O)C1CCCN(c2ncnc3onc(-c4ccc(F)cc4)c23)C1` (stereo not drawn), under setting [1], the half-maximal activity concentration (AC50) was 0.0316 µM [falling, full curve, poor fit]. For `O=C(Cc1ccc(S(=O)(=O)N2CCCCC2)s1)Nc1ccc(F)c(F)c1`, under setting [1], the concentration at half-maximal activity (AC50) was 25.1 µM [rising, single point]. Consider `Cc1ccc(Cn2ccc(NC(=O)c3cc(-c4ccc5c(c4)OCO5)on3)n2)cc1`, for which the AC50 under setting [2] is 0.794 µM [falling, full curve, poor fit]. Take `N#Cc1cccc(-c2ccc3ncnc(NCc4cccs4)c3c2)c1`: the AC50 runs as follows: under setting [1], 17.8 µM [falling, partial curve, poor fit]; under setting [2], 17.8 µM [falling, partial curve].

`Cc1ccc(NC(=O)CN2C(=O)NC3(CCc4ccccc43)C2=O)cc1` (stereo not drawn): under setting [2], the AC50 is 0.01 µM [falling, full curve, poor fit]. Consider `CCC(C)(c1ccc(C(=O)OC)s1)c1ccc(C(=O)OC)s1`, for which the AC50 under setting [1] was 8.91 µM [rising, partial curve]. As to `COc1ccc(N2CCN(C(=O)CSc3n[nH]c(-c4ccccc4)n3)CC2)cc1`, the AC50 under setting [1] is 0.0282 µM [rising, full curve, poor fit]. Take `Cc1nn(Cc2ccc(Cl)c(Cl)c2)c(C)c1NC(=O)c1cc(C2CC2)on1`: the AC50 under setting [2] is 15.8 µM [rising, single point]. Turning to `O=C(Nc1ccccc1O)c1ccccc1O`, the concentration at half-maximal activity (AC50) runs as follows: under setting [1], 7.94 µM [rising, partial curve]; under setting [2], 17.8 µM [rising, partial curve]. For the compound `Cc1ccc(CCNC(=O)CCN2N=C(c3ccc(C)cc3)CCC2=O)cc1`, under setting [1], the half-maximal activity concentration (AC50) was 35.5 µM [rising, single point]. The same measure, in the same setting: in the case of `O=C(Nc1ccc(N2CCOCC2)nc1)c1cccs1` it was 8.91 µM [rising, partial curve, poor fit]. Take `CCOc1cc(CC(=O)N[C@@H](CC(C)C)c2ccccc2N2CCCCC2)ccc1C(=O)O`: the AC50 is, setting by setting: under setting [1], 0.0141 µM [falling, full curve, poor fit]; under setting [2], 0.398 µM [rising, full curve, poor fit]. For the compound `Cc1nc(C)c(-c2ccc(SCC(=O)Nc3ccc(Cl)c(Cl)c3)nn2)s1`, the AC50 runs as follows: under setting [1], 35.5 µM [falling, partial curve, poor fit]; under setting [2], 35.5 µM [falling, partial curve, poor fit].

Take `CC(=O)Oc1ccccc1N(C(C)=O)S(=O)(=O)c1cccc([N+](=O)[O-])c1`: under setting [1], the AC50 was 6.31 µM [falling, single point].

For the compound `CCCCCCCC(=O)NC(Nc1ccccc1OC)C(Cl)(Cl)Cl` (stereo not drawn), the AC50 under setting [1] was 31.6 µM [rising, single point]. For the compound `COc1cccc(CNC(=O)C2CCN(C(=O)N3CCOc4ccc(Cl)cc43)CC2)c1OC`, the half-maximal activity concentration (AC50) under setting [1] was 10 µM [falling, partial curve, poor fit]. In the case of `CCC12CN3CC(CC)(CN(C1)C31C(=O)N(C)c3ccc(C)cc31)C2=O` (stereo not drawn), the AC50 is 3.98 µM [falling, partial curve, poor fit] under setting [1] and 0.02 µM [falling, full curve, poor fit] under setting [2]. For `Cc1cc(OCCCn2ccnc2)ccc1C(C)C`, the AC50 runs as follows: under setting [1], 20 µM [rising, partial curve, poor fit]; under setting [2], 15.8 µM [rising, partial curve]. With `CCS(=O)(=O)Nc1ccc(C(=O)c2ccccc2)cc1`, the concentration at half-maximal activity (AC50) under setting [2] was 0.0447 µM [rising, full curve, poor fit]. On the same count and under the same terms, for `CSc1oc(-c2ccccc2)nc1S(=O)(=O)c1ccc(F)cc1` the value was 11.2 µM [rising, partial curve, poor fit]. For `Cc1cc(C)c2nc(-c3ccccn3)cc(C(=O)Nc3ccc(S(=O)(=O)Nc4onc(C)c4C)cc3)c2c1`, the AC50 is 35.5 µM [falling, single point] under setting [1] and 12.6 µM [falling, partial curve, poor fit] under setting [2].
